Assay results as given in PubChem BioAssay AID624297 (National Center for Advancing Translational Sciences (NCATS), 2012).
Among all 340,000 compounds or so, about 6,200 (1.8%) were called active. This list was built around the results that the source calls inconclusive (neither active nor inactive); the mix of calls is not that of the screen. Calls come from the whole dose curve; as a rule, active = well fitted activation curve with a large enough effect; inconclusive = small, poorly fitted or top-dose-only effect; inactive = no such curve, though single readings can be large or run the other way. Where the call is inconclusive, the potency comes from a doubtful curve fit.

Test: A quantitative high throughput screen for small molecules that induce DNA re-replication in SW480 colon adenocarcinoma cells. For re-replication activation: % of control where 0% means no effect. Note: nearly all actives have a fitted effect of over 55% in size.
Settings: Hoechst DNA content imaging, 48 h; re-replication activation: at 46.1 µM (top of the series) unless noted
In short: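 Per well, 250 cells were exposed to pinned compound for 48 hr. Nuclear DNA was visualised with Hoechst (40 min, 37 C) and total object intensity recorded by fluorescence scanning.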
Potency is the fitted concentration of half-maximal effect.

Structure (SMILES) | Potency | re-replication activation
COc1cc2sc3ccc(C#Cc4ccccn4)cc3c(=O)c2cc1OC | inconclusive: 7.31 µM [activator, partial curve] | 
NNC(=O)c1[nH]c2ccccc2c1-c1ccccc1 | active: 9.2 µM | 
Cc1cccc(N(CC(O)CON=C2c3ccccc3-c3ccccc32)S(C)(=O)=O)c1 (configuration not stated) | inconclusive: 29.1 µM [activator, single point] | 
C[C@@H]1C(SC2Cn3cnc[n+]3C2)=C(C(=O)[O-])N2C(=O)[C@H]([C@@H](C)O)[C@@H]12 (some centres not stated) |  | inactive: -8.34%
CCOc1ccccc1NC(=O)CC1Nc2cc(C)c(C)cc2NC1=O (configuration not stated) | inconclusive: 29.1 µM [activator, single point] | 
O=C(O)c1cccc(-c2ccc(/C=N/Nc3ccc([N+](=O)[O-])cc3)o2)c1 | inconclusive: 29.1 µM [activator, single point] | 
COc1cccc([C@@H]2Oc3ccc(OC)cc3C(=O)[C@H]2OC(=O)NCc2ccc3c(c2)OCO3)c1 | inconclusive: 29.1 µM [activator, single point] | 
O=C(C1CCCO1)N1CCN(C(c2ccccc2)c2ccccc2)CC1 (configuration not stated) | inconclusive: 0.0052 µM [activator, full curve, poor fit] | 
CCOC(=O)C1=CN(Cc2cccc(F)c2)S(=O)(=O)N(CC)C1c1ccc(Br)cc1F (configuration not stated) | inconclusive: 2.31 µM [activator, partial curve, poor fit] | 
CCOC(=O)[C@H]1[C@H]2COc3ccccc3[C@@H]2N2C(=O)[C@@H](CO)NC(=O)[C@@]12C |  | inactive: -11.3%
COC(=O)C1=C(C)Nc2nc3ccccc3n2C1c1ccccc1F (configuration not stated) | inconclusive: 6.51 µM [activator, partial curve] | 
O=C(Nc1cccc(C(F)(F)F)c1)c1cccnc1N1CCN(c2ccccc2)CC1 |  | inactive: 0.378%
COCC(=O)N/N=C\c1ccc(OC/C=C/c2ccccc2)c(OC)c1 | inconclusive: 29.1 µM [activator, single point] | 
COc1ccc(N2CCN(CCCNC(=O)C3CCCN(S(=O)(=O)c4cnc[nH]4)C3)CC2)cc1 (configuration not stated) | inconclusive: 23.1 µM [activator, partial curve, poor fit] | 
CC(C)CN(C)Cc1c(C(=O)N2CCc3ccccc3C2)nc2ccc(Cl)cn12 |  | inactive: 2.31%
CC(C)c1ccc(/C=C/C(=O)NC(=S)Nc2ccc(CN3CCOCC3)cc2)cc1 |  | inactive: 22.8%
Cc1nnc(C)n1/N=C/c1cc2ccccc2nc1Cl |  | inactive: 14.7%
Cc1ccc(C(NC(=O)NC(C)c2ccccc2)C(Cl)(Cl)Cl)cc1F (configuration not stated) | inconclusive: 15.8 µM [activator, single point] | 
CN(CC(=O)Nc1cccc2ccccc12)C(=O)/C=C/c1cccs1 | inconclusive: 3.66 µM [activator, full curve, poor fit] | 
O=C(N/N=C1/CCCc2ccccc21)C(c1ccccc1)c1ccccc1 | inconclusive: 29.1 µM [activator, partial curve, poor fit] | 
Cc1ccc(C)c(S(=O)(=O)NC(C)CCc2ccccc2)c1 (configuration not stated) |  | inactive: -7.97%
COc1ccc(C)cc1N1CC(C(=O)Nc2ccccc2N2CCCCC2)CC1=O (configuration not stated) |  | inactive: 1.55%
Cn1nc(-c2ccccc2)c(CO)c1Oc1ccc(F)cc1 |  | inactive: -1.01%
CCC1CCCCN1C(=S)NCc1ccccc1 (configuration not stated) |  | inactive: -1.52%

Structural class, the entries above containing an NH in an aromatic ring (2)
Structure (SMILES) | Potency | re-replication activation
NNC(=O)c1[nH]c2ccccc2c1-c1ccccc1 | active: 9.2 µM | 
COc1ccc(N2CCN(CCCNC(=O)C3CCCN(S(=O)(=O)c4cnc[nH]4)C3)CC2)cc1 (configuration not stated) | inconclusive: 23.1 µM [activator, partial curve, poor fit] | 

Remaining list, next part

Structure (SMILES) | Potency | re-replication activation
CCOc1ccc(CN(C)c2ccc(S(=O)(=O)N3CCN(C)CC3)cc2[N+](=O)[O-])cc1OC |  | inactive: -5.02%
CCCn1c(=N)c(S(=O)(=O)c2ccc(F)cc2)cc2c(=O)n3ccccc3nc21 | inconclusive: 0.0092 µM [activator, full curve, poor fit] | 
CN(C)S(=O)(=O)c1ccc2c(c1)/C(=C/c1cc3c([nH]1)CCCC3)C(=O)N2 | active: 10.3 µM | 
CC1(C)CC(=O)C=C(NCC(O)c2ccccc2)C1 (configuration not stated) |  | inconclusive: 57.9% [activator]
O=C1NC[C@H](Cc2ccccc2)N(CC2CCN(CC3CCCC3)CC2)C1=O | inconclusive: 29.1 µM [activator, single point] | 
O=C1[C@H]2CCCC[C@H]2C(=O)N1CCCCN1CCN(c2nsc3ccccc23)CC1 | inconclusive: 0.355 µM [activator, partial curve, poor fit] | 
COc1ccc(C)cc1NC(=O)c1ccc([N+](=O)[O-])cc1[N+](=O)[O-] |  | inactive: -7.41%
C#CCOc1ccc(C2C3=C(COC3=O)Nc3cc4c(cc32)OCO4)cc1OC (configuration not stated) | active: 0.517 µM | 
CCOC(=O)c1c(NC(=S)Nc2ccccc2)sc2c1CCN(C)C2 | inconclusive: 29.1 µM [activator, single point] | 
Cc1ccccc1C1=N/C(=C/c2cccs2)C(=O)O1 | inconclusive: 16.4 µM [activator, single point] | 
COc1ccc(CCn2c(=N)c(C(=O)NCC3CCCO3)cc3c(=O)n4cccc(C)c4nc32)cc1OC (configuration not stated) | inconclusive: 0.794 µM [activator, partial curve, poor fit] | 
CCNC(=O)c1ccc(C2SCC(=O)N2CCc2ccccc2)cc1 (configuration not stated) |  | inactive: -1.32%
CC1=C(C(=O)OC2CCCCCCC2)C(c2cc3c(cc2Br)OCO3)CC(=O)N1 (configuration not stated) | inconclusive: 18.4 µM [activator, single point] | 
CCOC(=O)c1nn(-c2ccc(Br)cc2)cc1C(=O)c1cccc2ccccc12 | inconclusive: 18.4 µM [activator, single point] | 
CCN(CCO)Cc1csc2ccc(C(C)(C)C)cc12 |  | inactive: 3.52%
COc1cc(C2NC(=O)NC(C)=C2C(=O)OCc2ccc(C)cc2)cc(OC)c1OC (configuration not stated) | inconclusive: 23.1 µM [activator, single point] | 
CCC(C)NCCCCOc1cc(C)cc(C(C)C)c1 (configuration not stated) | inconclusive: 0.0231 µM [activator, full curve, poor fit] | 
C/C(=N/NC(=O)NC12CC3CC(CC(C3)C1)C2)c1ccccc1 |  | inactive: 16.5%
CC(C)(C)[C@]1(O)CCN2CC3c4ccccc4CCc4cccc(c43)[C@@H]2C1 (some centres not stated) |  | inactive: 14.9%
CCOC(=O)C1(Cc2cccc(OC)c2)CCCN(Cc2cnn(C)c2)C1 (configuration not stated) |  | inactive: -8.9%
COc1ccc(C=O)c(OCc2cn(CC(=O)c3ccc(O)cc3)nn2)c1 |  | inactive: -1.95%
COCCN(CCOC)S(=O)(=O)c1ccc(C(=O)Nc2nc3c(s2)CCc2ccccc2-3)cc1 | inconclusive: 25.9 µM [activator, partial curve, poor fit] | 
CC1(c2nnc(-c3ccc(F)cc3)o2)CC(c2ccccc2)=NO1 (configuration not stated) |  | inactive: -21.2%
COc1ccc(CNC(=O)C(c2ccc(C)cc2)N(Cc2cccs2)C(=O)c2ccc3c(c2)OCCO3)cc1 (configuration not stated) | inconclusive: 20.6 µM [activator, partial curve, poor fit] | 

Structure (SMILES) | Potency | re-replication activation
CCCCCOc1ccc(CSC(=N)N)cc1[N+](=O)[O-] | inconclusive: 29.1 µM [activator, single point] | 
Nc1nc(SCC(=O)O)[nH]c(=O)c1NC(=O)c1ccco1 |  | inactive: -4.4%
O=C(Cn1nnc2ccccc21)OCC(=O)c1ccc(F)cc1 |  | inactive: -0.337%
COc1ccccc1N1CCN(C2CCCN(Cc3ccc(Cl)cc3)C2)CC1 (configuration not stated) | inconclusive: 20.6 µM [activator, partial curve, poor fit] | 
CN(C)CCCNC(=O)c1cc2c3ccccc3n(C)c2s1 |  | inactive: -11%
O=C(NC(NC1CCS(=O)(=O)C1)C(Cl)(Cl)Cl)c1cccc(Cl)c1 (configuration not stated) |  | inactive: 0.654%
CCN(CC)Cc1c(O)ccc2c(=O)c(-c3ccccc3OC)coc12 | inconclusive: 8.2 µM [activator, partial curve, poor fit] | 
COc1ccc(-c2n[nH]c(C)c2-c2cscn2)c(O)c1 |  | inactive: 0.725%
Cc1cc(C)c(OCC(=O)Nc2ccc(S(=O)(=O)N3CCCC3)cc2)c(C)c1 | inconclusive: 29.1 µM [activator, single point] | 
Cc1ccc(Cn2nnc3c(=O)[nH]c(C4CCN(S(=O)(=O)c5ccc(C)cc5)CC4)nc32)cc1 | inconclusive: 29.1 µM [activator, single point] | 
CC1Cc2cc(/C(O)=C3\C(=O)C(=O)N(Cc4cccnc4)C3c3ccccc3F)ccc2O1 (configuration not stated) | inconclusive: 5.8 µM [activator, full curve, poor fit] | 
Cc1c(OC(C)C(=O)NCCN2CCOCC2)ccc2c3c(c(=O)oc12)CCC3 (configuration not stated) |  | inactive: -19.1%
COc1ccc(C(=O)CSc2nc(C(C)(C)C)nc3ccccc23)cc1 |  | inactive: 1.91%
O=C(Nc1ccccc1[N+](=O)[O-])c1cc(S(=O)(=O)N2CCOCC2)cs1 | inconclusive: 23.1 µM [activator, single point] | 
CCc1ccc2c(c1)C(=O)CCC2 |  | inactive: -10.2%
CCC(Oc1ccccc1F)C(=O)Nc1ccc2c(c1)n(C)c(=O)n2C (configuration not stated) | inconclusive: 18.4 µM [activator, single point] | 
Cc1nn(-c2ccccc2)c2c1C(c1ccc(Br)s1)C(C#N)=C(N)O2 (configuration not stated) |  | inactive: -1.54%
COc1ccc2nc(-c3ccccc3)cc(C(=O)OCC(=O)N3CC(C)OC(C)C3)c2c1 (configuration not stated) | inconclusive: 29.1 µM [activator, single point] | 
O=P(O)(O)C(O)(Cn1ccnc1)P(=O)(O)O |  | inactive: -0.0439%
CC(=NNc1nc2ccccc2o1)c1ncccn1 | inconclusive: 0.0041 µM [activator, full curve, poor fit] | 
c1ccc(CNc2ncnc3sc4c(c23)CCC4)nc1 |  | inactive: 1.95%
COC(=O)c1sccc1NC(=O)CN(C)NS(=O)(=O)c1ccc(Cl)cc1 | inconclusive: 20.6 µM [activator, single point] | 
Cc1ccc2nc(N3CCN(C(=O)CCCC(=O)O)CC3)nc(-c3ccccc3)c2c1 |  | inactive: 2.69%
CC1CCN(C(=O)c2[nH]cnc2C(=O)N[C@@H](CCCCNC(=O)OC(C)(C)C)C(=O)OC(C)(C)C)CC1 |  | inactive: -5.3%

3 compounds out of the list, ordered by formula weight, smallest number first:
Structure (SMILES) | Potency | re-replication activation
Nc1nc(SCC(=O)O)[nH]c(=O)c1NC(=O)c1ccco1 |  | inactive: -4.4%
Cc1nn(-c2ccccc2)c2c1C(c1ccc(Br)s1)C(C#N)=C(N)O2 (configuration not stated) |  | inactive: -1.54%
COC(=O)c1sccc1NC(=O)CN(C)NS(=O)(=O)c1ccc(Cl)cc1 | inconclusive: 20.6 µM [activator, single point] | 
